± gives the standard error. The uncertainty is large for many entries.
B1: glmS ribozyme (parent)
chain: AUAAAAGCGCCAGAACUACAGAAAUGUAGUUGACGAGGAGGAGGUUUAUCGAAUUUUCGGCGGAUGCCUCCAAA

Variants of: B1
Assay: KM; higher = weaker cofactor use; RNA array
Settings: with glucosamine-6-phosphate
In short: (§1)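 In situ transcription by E. coli RNA polymerase produced barcoded ribozyme variants on sequenced MiSeq chips, and a hybridised Cy3 probe tracked them at 37 °C. Glucosamine-6-phosphate was flowed in at 40 μM to 10 mM in HEPES/KCl/Mg(OAc)2 buffer. kcat and KM were taken from weighted Michaelis–Menten fits of kobs values from exponential decay fits.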

| Variant | KM |
| --- | --- |
| C10G G62C | 759 ± 600 µM |
| A12U U54G | 1130 ± 680 µM |
| G41A C67G C70U | 6240 ± 4500 µM |
| G13A U57C | 4540 ± 780 µM |
| U30A C67A | 2450 ± 1600 µM |
| A15G G37A | 2670 ± 1600 µM |
| G66A C71A | 666 ± 500 µM |
| A12U U57C | 4270 ± 2800 µM |
| C11A A15G C16A G29U | 2210 ± 1100 µM |
| G29C C67A | 822 ± 450 µM |
| G7C G13U | 465 ± 370 µM |
| G29U A42G | 1770 ± 660 µM |
| A12G C58G | 1950 ± 1100 µM |
| U65G C71A | 6040 ± 5300 µM |
| G32C U57G | 86 ± 57 µM |
| A15G U31G A39U | 5090 ± 3000 µM |
| A14C U49G | 6690 ± 570 µM |
| A12C A64C | 4850 ± 770 µM |
| G9U C61G | 2350 ± 460 µM |
| G37A A53U C71U | 1320 ± 1100 µM |
| A42G A48C | 4500 ± 1200 µM |
| A14C G66U | 1010 ± 570 µM |
| A12U C71U | 1790 ± 350 µM |
| C11U C58G | 188 ± 18 µM |
| U31G U56G C67U | 2910 ± 800 µM |
| A33U G40C | 16000 ± 3900 µM |
| U55G U56A | 3920 ± 3300 µM |

A different layout for some results above:
Variant	KM
G41A C67G C70U	6240 ± 4500 µM
A12C A64C	4850 ± 770 µM
G37A A53U C71U	1320 ± 1100 µM

Going on with the list:

| Variant | KM |
| --- | --- |
| C16U U46G | 1810 ± 320 µM |
| U30A U49G C70U | 2220 ± 1600 µM |
| C34G C67U | 37.1 ± 28 µM |
| C11A U30A | 1940 ± 600 µM |
| U54C C68U | 233 ± 210 µM |
| G29U C50U | 3520 ± 700 µM |
| A14C G44U | 1330 ± 1100 µM |
| U31A G37A | 1450 ± 840 µM |
| G13C U47A G59U C67G | 511 ± 310 µM |
| C16U A64U | 1510 ± 890 µM |
| C11U G37U | 67.6 ± 58 µM |
| U45A U54A | 2630 ± 1200 µM |
| U65A C70U | 2130 ± 1500 µM |
| C11U G59A | 1470 ± 810 µM |
| G41A U45G | 1200 ± 800 µM |
| A14U C71U | 2360 ± 1400 µM |
| C10G C61A | 180 ± 67 µM |
| A6U U56G | 1090 ± 430 µM |
| A6G U45A | 2050 ± 1300 µM |
| U54C U56A | 2420 ± 1900 µM |
| A14U G59U | 813 ± 500 µM |
| A14U G59A | 9990 ± 1000 µM |
| A14U U31A | 1360 ± 700 µM |
| A12U G59U | 1690 ± 860 µM |
| G13U A36C C70U | 24.4 ± 14 µM |
| A12U A53C | 1170 ± 680 µM |
| U46C A53G | 1430 ± 280 µM |

Variants of: B1
Assay: kcat; higher = faster cleavage; RNA array
Settings: with glucosamine-6-phosphate
In short: as §1

| Variant | kcat |
| --- | --- |
| C50A G66A C70G | 9.78e-05 ± 6.7e-05 s⁻¹ |
| G41A C67G C70U | 0.00267 ± 0.0014 s⁻¹ |
| C50G G63C | 2.84e-05 ± 1.1e-05 s⁻¹ |
| G66A C71A | 0.00247 ± 0.0013 s⁻¹ |
| C50G U65G | 5.8e-05 ± 2.4e-05 s⁻¹ |
| A48U A52G | 1.32e-05 ± 2.9e-06 s⁻¹ |
| U65G C71A | 0.00388 ± 0.0027 s⁻¹ |
| G62U C71A | < 1e-05 s⁻¹ |
| A42G A48C | 0.00074 ± 0.00011 s⁻¹ |
| A52G G66A | 0.000403 ± 0.00026 s⁻¹ |
| U55G U56A | 0.0188 ± 0.012 s⁻¹ |
| U45G G66A | 0.0181 ± 0.015 s⁻¹ |
| U54C C68U | 0.00165 ± 0.00093 s⁻¹ |
| G59C C70A | 1.45e-05 ± 1.4e-05 s⁻¹ |
| G40A G44A | 3.11e-05 ± 1.6e-05 s⁻¹ |
| U45A U54A | 0.115 ± 0.045 s⁻¹ |
| U65A C70U | 0.00439 ± 0.0025 s⁻¹ |
| G41A U45G | 0.000391 ± 0.00013 s⁻¹ |
| C58U G62A C68G | 2.81e-05 ± 1.9e-05 s⁻¹ |
| G41C C70G | 0.0433 ± 0.038 s⁻¹ |
| C61U C67G | 1.37e-05 ± 7.2e-06 s⁻¹ |
| U54C U56A | 0.012 ± 0.0074 s⁻¹ |
| U49A C61A | < 1e-05 s⁻¹ |
| A52G C58U | 3.14e-05 ± 2.5e-05 s⁻¹ |
| U46C A53G | 0.00366 ± 0.0005 s⁻¹ |

In a second layout: entries from further up
G41A C67G C70U
  kcat = 0.00267 ± 0.0014 s⁻¹
U65G C71A
  kcat = 0.00388 ± 0.0027 s⁻¹
A42G A48C
  kcat = 0.00074 ± 0.00011 s⁻¹
G41C C70G
  kcat = 0.0433 ± 0.038 s⁻¹

Variants of: B1
Assay: self-cleavage kobs at 2500 uM GlcN6P; higher = faster cleavage; RNA array
Settings: with glucosamine-6-phosphate
In short: as §1

| Variant | self-cleavage kobs at 2500 uM GlcN6P |
| --- | --- |
| G66A C71A | 0.000434 ± 0.00042 s⁻¹ |
| G29U A42G | 0.00236 ± 0.0014 s⁻¹ |

Variants of: B1
Assay: self-cleavage kobs at 40 uM GlcN6P; higher = faster cleavage; RNA array
Settings: with glucosamine-6-phosphate
In short: as §1

| Variant | self-cleavage kobs at 40 uM GlcN6P |
| --- | --- |
| G29C C67A | 1.37e-05 ± 1.3e-05 s⁻¹ |
| U31G U56G C67U | 1.32e-05 ± 1e-05 s⁻¹ |

Variants of: B1
Assay: self-cleavage kobs at 640 uM GlcN6P; higher = faster cleavage; RNA array
Settings: with glucosamine-6-phosphate
In short: as §1

| Variant | self-cleavage kobs at 640 uM GlcN6P |
| --- | --- |
| A12G C58G | 1.42e-05 ± 1.2e-05 s⁻¹ |
| A12C A64C | 2.26e-05 ± 1.2e-05 s⁻¹ |
| C11U C58G | 2.58e-05 ± 1.5e-05 s⁻¹ |
| U30A U49G C70U | 1.87e-05 ± 1.4e-05 s⁻¹ |
| G59C C70A | 0.000174 ± 9e-05 s⁻¹ |
| C16U A64U | 1.68e-05 ± 1.1e-05 s⁻¹ |

Variants of: B1
Assay: self-cleavage kobs at 10000 uM GlcN6P; higher = faster cleavage; RNA array
Settings: with glucosamine-6-phosphate
In short: as §1

| Variant | self-cleavage kobs at 10000 uM GlcN6P |
| --- | --- |
| A33U G40C | 1.98e-05 ± 1e-05 s⁻¹ |
| U45G G66A | 0.0679 ± 0.048 s⁻¹ |
| G29U C50U | < 1e-05 s⁻¹ |

Variants of: B1
Assay: self-cleavage kobs at 160 uM GlcN6P; higher = faster cleavage; RNA array
Settings: with glucosamine-6-phosphate
In short: as §1

| Variant | self-cleavage kobs at 160 uM GlcN6P |
| --- | --- |
| U30A U49G C70U | 2.28e-05 ± 1.7e-05 s⁻¹ |
| C11A U30A | 3.21e-05 ± 2e-05 s⁻¹ |
| G59C C70A | 1.68e-05 ± 1.7e-05 s⁻¹ |
| A6G U45A | 2.91e-05 ± 2.1e-05 s⁻¹ |
| A12U A53C | 0.000976 ± 0.0005 s⁻¹ |

Source: the supplement of paper PMC7125110
